Test results reported in the supplement of paper PMC4604168 (melanoma cell lines).
This is one part of the list. Single values are uncertain, as repeats are few or missing.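 Cells were imaged in 1,536-well plates, and nuclei stained with an antibody against cleaved PARP were counted against all DNA-stained nuclei to give the apoptosis fraction. Screening doses were chosen to leave most cells alive, and resting and induced cleaved-PARP levels differ strongly between cell lines.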

Columns and labels:
Assay in all cases: cleaved PARP positive nuclei fraction relative to DMSO control; melanoma cells; higher = more apoptosis
Conditions in all cases: library dose: low library concentration; 72 h
501Mel = test system: 501Mel
A101D = test system: A101D
A2058 = test system: A2058
A375 = test system: A375
C32 = test system: C32
CBRC008 = test system: CBRC008 (line from a melanoma biopsy)
CBRC013 = test system: CBRC013 (line from a melanoma biopsy)
CBRC014 = test system: CBRC014 (line from a melanoma biopsy)
CBRC016 = test system: CBRC016 (line from a melanoma biopsy)
CBRC017 = test system: CBRC017 (line from a melanoma biopsy)

Structure (SMILES) | cleaved PARP positive nuclei fraction (501Mel) [%] | cleaved PARP positive nuclei fraction (A101D) [%] | cleaved PARP positive nuclei fraction (A2058) [%] | cleaved PARP positive nuclei fraction (A375) [%] | cleaved PARP positive nuclei fraction (C32) [%] | cleaved PARP positive nuclei fraction (CBRC008) [%] | cleaved PARP positive nuclei fraction (CBRC013) [%] | cleaved PARP positive nuclei fraction (CBRC014) [%] | cleaved PARP positive nuclei fraction (CBRC016) [%] | cleaved PARP positive nuclei fraction (CBRC017) [%]
C[As](C)SC[C@H](NC(=O)CC[C@H](N)C(=O)O)C(=O)NCC(=O)O [Darinaparsin] + CN(C)S(=O)(=O)c1ccc2c(c1)/C(=C/c1cc3c([nH]1)CCCC3)C(=O)N2 [SU6656] (first compound 0.4 µM, partner dose 0.4 µM) | 96.7 | 97.5 | 62.6 | 158 | 27.6 | 122 | 157 | 97.6 | 22.2 | 94.6
Cn1cc(C2=C(c3cn(C4CCN(Cc5ccccn5)CC4)c4ccccc34)C(=O)NC2=O)c2ccccc21 [Enzastaurin] + OCCn1cc(-c2cnc3nnn(Cc4ccc5ncccc5c4)c3n2)cn1 [PF04217903] (first compound 0.8 µM, partner dose 1 µM) | 186 | 78.1 | 102 | 149 | 99.5 | 239 | 50.9 | 87.8 | 80.6 | 103
N.N.[Cl][Pt][Cl] [cisplatin] + CC(C)(C)c1cnc(CSc2cnc(NC(=O)C3CCNCC3)s2)o1 [SNS-032] (first compound 1.6 µM, partner dose 0.01 µM) | 100 | 71.5 | 144 | 116 | 104 | 62.5 | 137 | 87.9 | 119 | 217
Cn1cc(C2=C(c3cn(C4CCN(Cc5ccccn5)CC4)c4ccccc34)C(=O)NC2=O)c2ccccc21 [Enzastaurin] + O=C(O)c1ccc(-c2c[nH]c3ncc(-c4ccccc4)cc23)cc1C1CCCC1 [GSK650394] (first compound 0.8 µM, partner dose 0.16 µM) | 88 | 96.1 | 46.5 | 55.7 | 77.1 | 78.9 | 70.9 | 337 | 108 | 129
Cn1cc(C2=C(c3cn(C4CCN(Cc5ccccn5)CC4)c4ccccc34)C(=O)NC2=O)c2ccccc21 [Enzastaurin] + CC1(C)NC(=O)N(c2ccc([N+](=O)[O-])c(C(F)(F)F)c2)C1=O [nilutamide] (first compound 0.8 µM, partner dose 1 µM) | 85.4 | 85.3 | 95.5 | 32.5 | 92 | 155 | 73.6 | 76.9 | 127 | 83.6
Cn1cc(C2=C(c3cn(C4CCN(Cc5ccccn5)CC4)c4ccccc34)C(=O)NC2=O)c2ccccc21 [Enzastaurin] + COc1cc2c(Oc3ccc4[nH]c(C)cc4c3F)ncnc2cc1OCCCN1CCCC1 [cediranib] (first compound 0.8 µM, partner dose 0.4 µM) | 90.8 | 77 | 137 | 96.2 | 243 | 125 | 31.6 | 96.2 | 53.7 | 94.9
